Results are given in words; binding and its absence hold for the method and conditions named. In cells and extracts the contact can be indirect. These calls come from enrichment with a bait or labelling near it, and not all partners need be listed.
B1: Collapsin Response Mediator Protein 5 (CRMP5) (protein, UniProt Q9JHU0 1-564)
chain: MLANSASVRILIKGGKVVNDDCTHEADVYIENGIIQQVGRELMIPGGAKVIDATGKLVIPGGIDTSTHFHQTFMNATCVDDFYHGTKAALVGGTTMIIGHVLPDKETSLVEAYEKCRALADPKVCCDYALHVGITWWAPKVKAEMETLVREKGVNSFQMFMTYKDLYMLRDSELYQVFHACRDFGAIPRVHAENGELVAEGAKEALDLGITGPEGIEISHPEELEAEATHRVITIANRTHCPIYLVNVSSISAGDVIAAAKMQGKVVLAETTNAHATLTGLHYYHQDWSHAAAYVTVPPLRLDTNTSTYLMSLLANDTLNIVASDHRPFTTKQKAMGKEDFTKIPHGVSGVQDRMSVVWERGVVGGKMDENRFVAVTSSNAAKILNLYPRKGRIIPGADADVVVWDPEATKTISASTQVQGGDFNLYENMRCHGVPLVTISRGRVVYENGVFMCAEGTGKFCPLRSFPDIVYKKLVQREKTLKVRGVDRTPYLGDVAVVVNPGKKEMGTPLADTPTRPVTRHGGMRDLHESSFSLSGSQIDDHVPKRASARILAPPGGRSSGIW

Chains of the proteins cited; added tags and fusions are not shown.
UniProt Q62952: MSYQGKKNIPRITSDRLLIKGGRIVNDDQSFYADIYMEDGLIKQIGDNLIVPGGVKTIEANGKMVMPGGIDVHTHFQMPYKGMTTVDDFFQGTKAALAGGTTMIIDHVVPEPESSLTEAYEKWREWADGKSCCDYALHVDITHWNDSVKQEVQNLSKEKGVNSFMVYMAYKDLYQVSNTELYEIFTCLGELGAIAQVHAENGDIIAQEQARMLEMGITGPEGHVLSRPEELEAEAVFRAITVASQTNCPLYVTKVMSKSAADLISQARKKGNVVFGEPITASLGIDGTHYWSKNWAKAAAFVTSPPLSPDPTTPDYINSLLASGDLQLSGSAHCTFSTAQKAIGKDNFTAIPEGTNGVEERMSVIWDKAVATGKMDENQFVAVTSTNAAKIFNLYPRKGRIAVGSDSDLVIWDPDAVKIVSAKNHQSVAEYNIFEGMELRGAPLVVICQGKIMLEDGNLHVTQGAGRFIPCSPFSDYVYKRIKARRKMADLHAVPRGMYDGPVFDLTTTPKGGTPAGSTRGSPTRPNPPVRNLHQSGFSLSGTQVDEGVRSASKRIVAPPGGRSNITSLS
UniProt Q62951: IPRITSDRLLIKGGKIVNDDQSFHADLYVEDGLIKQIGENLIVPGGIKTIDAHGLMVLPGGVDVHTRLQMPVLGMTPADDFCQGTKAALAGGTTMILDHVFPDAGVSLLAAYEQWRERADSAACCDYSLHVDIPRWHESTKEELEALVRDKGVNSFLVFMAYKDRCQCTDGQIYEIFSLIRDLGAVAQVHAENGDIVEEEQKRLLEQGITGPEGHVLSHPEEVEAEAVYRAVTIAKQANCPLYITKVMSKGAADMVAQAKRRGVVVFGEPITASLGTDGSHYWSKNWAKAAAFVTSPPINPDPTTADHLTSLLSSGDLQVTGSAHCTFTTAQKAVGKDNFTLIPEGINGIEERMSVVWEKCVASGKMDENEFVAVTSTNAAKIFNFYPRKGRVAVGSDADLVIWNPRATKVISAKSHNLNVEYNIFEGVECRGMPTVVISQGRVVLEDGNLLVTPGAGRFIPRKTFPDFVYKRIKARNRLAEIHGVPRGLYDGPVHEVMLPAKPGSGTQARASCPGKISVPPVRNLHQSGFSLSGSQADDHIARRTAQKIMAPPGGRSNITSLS
UniProt Q62950: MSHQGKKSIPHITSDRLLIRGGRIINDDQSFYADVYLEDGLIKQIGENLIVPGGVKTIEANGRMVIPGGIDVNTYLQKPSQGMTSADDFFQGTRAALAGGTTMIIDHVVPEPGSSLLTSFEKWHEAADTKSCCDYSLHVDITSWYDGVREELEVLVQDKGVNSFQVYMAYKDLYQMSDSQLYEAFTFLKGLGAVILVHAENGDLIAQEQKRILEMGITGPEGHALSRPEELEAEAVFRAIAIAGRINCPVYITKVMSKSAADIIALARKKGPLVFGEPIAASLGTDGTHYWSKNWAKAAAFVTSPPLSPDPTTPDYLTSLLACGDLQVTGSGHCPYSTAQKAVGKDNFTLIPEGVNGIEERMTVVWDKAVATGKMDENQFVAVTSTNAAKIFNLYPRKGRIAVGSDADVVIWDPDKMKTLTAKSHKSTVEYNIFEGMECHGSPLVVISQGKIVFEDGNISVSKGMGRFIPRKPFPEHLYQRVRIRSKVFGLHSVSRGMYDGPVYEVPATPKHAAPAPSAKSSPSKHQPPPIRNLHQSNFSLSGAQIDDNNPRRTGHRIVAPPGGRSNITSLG

Molecular target: Trio (rat (endogenous in rat brain growth cone fraction and primary cortical neurons)) (UniProt F1M0Z1)
Assay: affinity purification with mass spectrometry; endogenous Trio immunoprecipitated (Trio antibody, Protein A-agarose, 4 °C) from rat growth cone fractions of embryonic day 21 and postnatal day 2, solubilised in 1% Triton X-100 lysis buffer (50 mM Tris-HCl pH 7.4, 150 mM NaCl, 1 mM EDTA); gel bands digested, LC-MS/MS; N = 3 litters

Molecule | binding
Collapsin Response Mediator Protein 4 (CRMP4) (from UniProt Q62952 1-570) | binds
Collapsin Response Mediator Protein 3 (CRMP3) (from UniProt Q62951 1-564) | binds
Collapsin Response Mediator Protein 1 (CRMP1) (from UniProt Q62950 1-572) | binds
B1 | binds

— publication PMC12647243
